This is an account of results in PMC12817445.

By UniProt entry, the sequences of proteins in these tests, tags left out. Where a name states a change or a piece, a line headed by the entry shows the natural chain unless it says otherwise.
UniProt O00425: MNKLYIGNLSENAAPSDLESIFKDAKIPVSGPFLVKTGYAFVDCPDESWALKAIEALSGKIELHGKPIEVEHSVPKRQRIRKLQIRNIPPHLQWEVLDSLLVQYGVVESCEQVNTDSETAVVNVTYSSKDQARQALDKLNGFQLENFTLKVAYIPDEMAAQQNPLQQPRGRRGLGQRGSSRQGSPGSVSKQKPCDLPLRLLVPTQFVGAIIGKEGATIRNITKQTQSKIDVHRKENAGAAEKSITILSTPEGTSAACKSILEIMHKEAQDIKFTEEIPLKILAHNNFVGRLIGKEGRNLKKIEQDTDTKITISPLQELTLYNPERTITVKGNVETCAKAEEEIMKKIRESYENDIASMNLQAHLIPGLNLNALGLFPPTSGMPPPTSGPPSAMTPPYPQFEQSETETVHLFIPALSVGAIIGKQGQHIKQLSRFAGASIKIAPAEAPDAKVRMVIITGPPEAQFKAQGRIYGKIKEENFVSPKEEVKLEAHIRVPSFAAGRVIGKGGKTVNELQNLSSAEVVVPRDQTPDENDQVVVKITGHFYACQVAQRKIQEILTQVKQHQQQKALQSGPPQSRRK
UniProt Q14258: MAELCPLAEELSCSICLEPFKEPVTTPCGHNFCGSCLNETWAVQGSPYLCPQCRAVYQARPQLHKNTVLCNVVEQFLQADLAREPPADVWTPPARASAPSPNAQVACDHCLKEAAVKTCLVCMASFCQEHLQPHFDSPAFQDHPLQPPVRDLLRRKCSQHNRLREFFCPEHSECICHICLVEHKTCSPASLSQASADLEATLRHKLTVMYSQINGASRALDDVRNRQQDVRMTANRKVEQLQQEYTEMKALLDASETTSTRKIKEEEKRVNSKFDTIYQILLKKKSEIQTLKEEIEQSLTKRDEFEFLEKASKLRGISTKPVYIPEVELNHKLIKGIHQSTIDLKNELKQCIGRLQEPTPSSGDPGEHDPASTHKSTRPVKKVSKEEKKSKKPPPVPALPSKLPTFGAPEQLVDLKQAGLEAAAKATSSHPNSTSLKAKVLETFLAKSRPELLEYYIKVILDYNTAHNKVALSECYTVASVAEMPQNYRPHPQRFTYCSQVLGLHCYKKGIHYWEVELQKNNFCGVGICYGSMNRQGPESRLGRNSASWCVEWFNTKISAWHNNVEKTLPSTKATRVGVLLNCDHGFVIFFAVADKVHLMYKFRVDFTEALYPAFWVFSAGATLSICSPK

These are yes or no findings as the source states them, for the method shown. In cells and extracts the contact can be indirect. Some entries that bind do so weakly or less than the wild type.

Assay [1] addresses Insulin-like growth factor-2 mRNA-binding protein 3 (IGF2BP3), Flag-tagged (UniProt O00425). Kind of assay: co-IP; exogenous interaction: HA-tagged TRIM25 and Flag-tagged IGF2BP3 expressed in HEK293T cells; IP lysis buffer, immunoblot. For orientation: Immunoblotting shows a protein as a band on a membrane.
For assay [2] the target is unchanged. Briefly: co-IP; HEK293T cells co-transfected with Flag-IGF2BP3 and His-TRIM25, with or without overexpression of the lncRNA LL22NC03; IgG as negative control.
A further assay addresses IGF2BP3 T328R mutant (UniProt O00425). Kind of assay: co-IP; TRIM25 with IGF2BP3 wild type or point mutants (D294R, G296R, I312R, T328R); Supplementary Fig. 4C; cells and tags not given.
In the next assay the target is IGF2BP3 G296R mutant (UniProt O00425). Described as above.
For the next assay, the target named is IGF2BP3 I312R mutant (UniProt O00425). The description is as above.
For assay [3], the target named is IGF2BP3 wild-type (WT), as used beside the point mutants (UniProt O00425). The description is as above.
The target in assay [4] is IGF2BP3, endogenous (human (endogenous in HCC cells)) (UniProt O00425). Kind of assay: co-IP; endogenous proteins; lysate incubated overnight at 4 °C with anti-IGF2BP3 antibody, normal IgG as negative control, protein A-Sepharose beads, immunoblot.

As for “TRIM25, HA-tagged (from UniProt Q14258 1-630) (enzyme)”, the binding result in assay [1] is listed as “binds”.

Take “TRIM25, His-tagged (from UniProt Q14258 1-630) (enzyme)”: the binding entry in assay [2] was “binds”.

For the substance “TRIM25, as used in the co-IP with the IGF2BP3 point mutants (from UniProt Q14258 1-630) (enzyme)”, the binding entry (in the assay with IGF2BP3 T328R mutant; in the assay with IGF2BP3 G296R mutant; in the assay with IGF2BP3 I312R mutant; in assay [3]) was “binds” in each case.

“TRIM25, endogenous (from UniProt Q14258 1-630) (enzyme)”: the binding entry in assay [4] is “binds”.
